# Reference: publication doi:10.1101/2025.10.30.685566
# Chains of the proteins cited; added tags and fusions are not shown.
# UniProt Q5T5P2: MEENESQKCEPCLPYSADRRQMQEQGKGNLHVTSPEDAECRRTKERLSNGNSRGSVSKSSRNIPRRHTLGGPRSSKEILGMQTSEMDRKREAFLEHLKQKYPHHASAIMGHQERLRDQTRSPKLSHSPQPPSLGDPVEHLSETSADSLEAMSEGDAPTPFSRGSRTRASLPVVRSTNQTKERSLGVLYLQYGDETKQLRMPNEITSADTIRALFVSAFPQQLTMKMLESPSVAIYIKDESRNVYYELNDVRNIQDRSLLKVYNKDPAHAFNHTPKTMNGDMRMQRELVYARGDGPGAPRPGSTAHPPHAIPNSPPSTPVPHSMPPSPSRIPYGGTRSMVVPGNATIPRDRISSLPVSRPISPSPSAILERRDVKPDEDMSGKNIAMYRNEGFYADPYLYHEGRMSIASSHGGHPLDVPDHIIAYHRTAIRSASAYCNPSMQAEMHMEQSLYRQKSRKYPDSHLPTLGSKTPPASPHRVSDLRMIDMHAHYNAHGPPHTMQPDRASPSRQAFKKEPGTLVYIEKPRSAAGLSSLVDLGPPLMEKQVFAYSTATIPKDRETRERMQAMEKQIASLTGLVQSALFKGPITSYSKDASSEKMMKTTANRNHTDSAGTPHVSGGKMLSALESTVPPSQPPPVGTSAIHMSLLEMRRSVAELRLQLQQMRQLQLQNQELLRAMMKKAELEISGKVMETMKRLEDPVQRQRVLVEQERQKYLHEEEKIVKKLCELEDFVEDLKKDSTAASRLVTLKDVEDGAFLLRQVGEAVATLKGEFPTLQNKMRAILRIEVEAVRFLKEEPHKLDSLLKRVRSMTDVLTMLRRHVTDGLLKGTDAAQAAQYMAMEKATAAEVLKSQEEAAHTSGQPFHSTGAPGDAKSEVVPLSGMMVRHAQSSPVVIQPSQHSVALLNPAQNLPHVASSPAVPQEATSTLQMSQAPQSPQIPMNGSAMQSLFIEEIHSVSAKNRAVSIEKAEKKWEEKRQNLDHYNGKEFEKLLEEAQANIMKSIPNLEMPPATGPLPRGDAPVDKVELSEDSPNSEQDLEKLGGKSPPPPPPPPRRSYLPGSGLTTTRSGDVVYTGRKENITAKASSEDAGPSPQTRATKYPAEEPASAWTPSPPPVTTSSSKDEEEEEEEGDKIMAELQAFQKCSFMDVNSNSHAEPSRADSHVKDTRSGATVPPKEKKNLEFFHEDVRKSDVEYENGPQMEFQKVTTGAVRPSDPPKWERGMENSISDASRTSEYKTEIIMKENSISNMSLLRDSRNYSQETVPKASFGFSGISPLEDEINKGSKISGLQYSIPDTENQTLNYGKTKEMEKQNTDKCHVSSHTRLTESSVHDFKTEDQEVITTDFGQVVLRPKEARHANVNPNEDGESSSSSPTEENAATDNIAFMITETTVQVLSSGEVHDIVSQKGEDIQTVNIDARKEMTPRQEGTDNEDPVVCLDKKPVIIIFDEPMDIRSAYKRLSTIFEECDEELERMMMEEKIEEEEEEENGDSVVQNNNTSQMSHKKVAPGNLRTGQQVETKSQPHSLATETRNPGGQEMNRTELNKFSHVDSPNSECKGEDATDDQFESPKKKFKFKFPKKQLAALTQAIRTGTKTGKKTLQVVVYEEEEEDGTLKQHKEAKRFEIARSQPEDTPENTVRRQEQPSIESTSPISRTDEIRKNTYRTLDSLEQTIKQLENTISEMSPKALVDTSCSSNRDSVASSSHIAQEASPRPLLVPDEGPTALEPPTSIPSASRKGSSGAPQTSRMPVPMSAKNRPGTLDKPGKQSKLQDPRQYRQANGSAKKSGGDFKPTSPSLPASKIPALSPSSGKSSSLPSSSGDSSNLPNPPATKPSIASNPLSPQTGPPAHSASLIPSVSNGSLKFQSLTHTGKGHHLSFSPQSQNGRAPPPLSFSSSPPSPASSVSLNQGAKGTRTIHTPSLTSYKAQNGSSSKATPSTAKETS
# UniProt Q15691: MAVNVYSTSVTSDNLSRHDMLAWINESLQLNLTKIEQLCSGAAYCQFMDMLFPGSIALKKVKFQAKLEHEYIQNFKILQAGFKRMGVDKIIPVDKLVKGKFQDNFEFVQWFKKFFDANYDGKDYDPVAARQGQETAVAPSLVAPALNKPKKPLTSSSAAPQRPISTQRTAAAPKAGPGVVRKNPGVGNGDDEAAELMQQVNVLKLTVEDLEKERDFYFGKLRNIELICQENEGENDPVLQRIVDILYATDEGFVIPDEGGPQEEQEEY
# Results are given in words; binding and its absence hold for the method and conditions named. In cells and extracts the contact can be indirect. Some results given as binding are weak or reduced against the parent protein; the word gives no strength. For some of these results: Sequences can lack the tags named with a protein.
# Assays:
# Test in all cases: co-IP
# [1] = target: Flag-KIAA1217 (human) (UniProt Q5T5P2)
# [2] = target: EB1-GFP (UniProt Q15691)
# [3] = target: T1, CYLD-Flag (UniProt Q9NQC7)
# T1 sequence: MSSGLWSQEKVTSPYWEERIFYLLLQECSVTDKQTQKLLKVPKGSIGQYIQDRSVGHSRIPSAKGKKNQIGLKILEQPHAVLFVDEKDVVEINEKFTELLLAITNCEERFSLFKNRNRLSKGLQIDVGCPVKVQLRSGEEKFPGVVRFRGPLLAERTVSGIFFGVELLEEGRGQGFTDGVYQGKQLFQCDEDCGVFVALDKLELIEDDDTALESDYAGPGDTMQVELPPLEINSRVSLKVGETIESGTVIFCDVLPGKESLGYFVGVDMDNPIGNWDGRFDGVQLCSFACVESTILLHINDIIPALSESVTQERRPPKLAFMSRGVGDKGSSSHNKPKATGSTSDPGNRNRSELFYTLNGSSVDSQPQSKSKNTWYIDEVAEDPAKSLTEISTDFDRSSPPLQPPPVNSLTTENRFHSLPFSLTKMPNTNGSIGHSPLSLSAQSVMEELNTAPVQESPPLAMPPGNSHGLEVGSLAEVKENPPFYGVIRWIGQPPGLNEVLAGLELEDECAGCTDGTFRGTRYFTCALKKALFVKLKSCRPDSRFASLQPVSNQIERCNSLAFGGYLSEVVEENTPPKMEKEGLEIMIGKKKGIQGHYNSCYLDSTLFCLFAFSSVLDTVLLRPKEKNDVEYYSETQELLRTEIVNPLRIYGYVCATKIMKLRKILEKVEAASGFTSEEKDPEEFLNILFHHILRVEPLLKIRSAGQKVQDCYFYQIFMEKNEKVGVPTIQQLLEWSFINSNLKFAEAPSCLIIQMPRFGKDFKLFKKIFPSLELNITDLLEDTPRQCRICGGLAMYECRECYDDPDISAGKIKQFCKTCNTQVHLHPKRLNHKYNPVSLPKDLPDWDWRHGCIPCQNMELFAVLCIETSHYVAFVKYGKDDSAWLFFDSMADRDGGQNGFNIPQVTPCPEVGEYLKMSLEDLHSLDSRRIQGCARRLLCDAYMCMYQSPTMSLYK
# [4] = target: T2, p140Cap-Flag (UniProt Q9C0H9)
# T2 sequence: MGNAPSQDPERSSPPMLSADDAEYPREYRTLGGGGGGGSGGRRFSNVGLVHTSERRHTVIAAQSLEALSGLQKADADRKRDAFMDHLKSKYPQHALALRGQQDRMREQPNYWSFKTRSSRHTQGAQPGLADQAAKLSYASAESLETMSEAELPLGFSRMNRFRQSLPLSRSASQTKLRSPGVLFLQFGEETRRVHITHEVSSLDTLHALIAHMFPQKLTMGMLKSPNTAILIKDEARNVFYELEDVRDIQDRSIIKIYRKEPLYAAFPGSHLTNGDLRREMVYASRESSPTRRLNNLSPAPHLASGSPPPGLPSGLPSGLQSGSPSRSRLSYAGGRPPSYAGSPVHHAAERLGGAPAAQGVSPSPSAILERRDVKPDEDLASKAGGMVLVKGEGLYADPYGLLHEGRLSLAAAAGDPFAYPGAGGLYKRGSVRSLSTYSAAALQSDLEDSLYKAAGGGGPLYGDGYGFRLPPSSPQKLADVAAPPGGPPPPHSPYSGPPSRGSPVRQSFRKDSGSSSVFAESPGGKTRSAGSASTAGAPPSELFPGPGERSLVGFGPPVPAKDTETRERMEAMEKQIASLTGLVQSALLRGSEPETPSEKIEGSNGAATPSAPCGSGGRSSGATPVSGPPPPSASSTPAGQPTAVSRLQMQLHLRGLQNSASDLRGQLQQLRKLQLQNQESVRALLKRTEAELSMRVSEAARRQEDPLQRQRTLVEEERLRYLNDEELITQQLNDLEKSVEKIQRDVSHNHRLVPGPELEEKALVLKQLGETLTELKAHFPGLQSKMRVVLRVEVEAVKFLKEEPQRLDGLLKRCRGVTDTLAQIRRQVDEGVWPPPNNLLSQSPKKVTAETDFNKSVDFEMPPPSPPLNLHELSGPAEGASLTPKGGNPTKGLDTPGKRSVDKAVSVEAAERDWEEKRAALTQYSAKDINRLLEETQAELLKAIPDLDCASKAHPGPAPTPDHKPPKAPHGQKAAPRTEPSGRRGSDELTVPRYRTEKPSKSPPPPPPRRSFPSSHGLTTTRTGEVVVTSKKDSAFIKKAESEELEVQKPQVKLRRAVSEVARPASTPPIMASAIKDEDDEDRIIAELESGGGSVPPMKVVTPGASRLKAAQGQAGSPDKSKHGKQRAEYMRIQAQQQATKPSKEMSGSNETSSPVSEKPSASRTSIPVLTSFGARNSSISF
substance,measurement,setting,value
EB1-GFP (from UniProt Q15691 1-268),binding,[1],binds
Flag-KIAA1217 (from UniProt Q5T5P2 1-1943),binding,[2],binds
GFP-KIAA1217 (from UniProt Q5T5P2 1-1943),binding,[3],binds
same,binding,[4],binds
